PubChem BioAssay AID1671195, Yale University, 2021
In all, the deposit lists about 22,000 reagents; shown is a part drawn at random. Of all reagents, about 1,510 (6.9%) are marked active. 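Active includes knockdowns raising or lowering LDL uptake; positive z-scores mean more uptake, negative mean less.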 A number with no mark means an inactive call. No sequences are given here.

Assay: 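Knockdowns that increase or decrease uptake of fluorescent LDL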 (primary screen)
Cells: human Huh7 hepatoma cells
Knock-down reagent: siRNA pool against human genes, 18 nM
Timing: about 2 to 2.5 days of knockdown, then 8 h LDL uptake
Conditions: DiI-labelled LDL at 30 µg/ml for 8 h, in lipoprotein-deficient serum medium
Detection: 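Fluorescent LDL signal imaged in cells, scaled to the plate median, robust z-score for each replicate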
Scale: robust z-score: higher = more LDL uptake after knockdown
Rule for the call: 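Active when two or more replicates show a robust z-score above 2 or below -2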

SFMBT1 [SID442887751]: robust z-score, replicate 1 = 2.09; robust z-score, replicate 2 = 1.79; robust z-score, replicate 3 = -1.34
OR8G5 [SID442895992]: robust z-score, replicate 1 = -0.292; robust z-score, replicate 2 = -0.354; robust z-score, replicate 3 = -0.0343
RPL6 [SID442904429]: robust z-score, replicate 1 = -1.78; robust z-score, replicate 2 = -1.3; robust z-score, replicate 3 = -1.84
NEXMIF [SID442896452]: robust z-score, replicate 1 = -0.254; robust z-score, replicate 2 = -0.299; robust z-score, replicate 3 = -0.273
IFNGR2 [SID442893361]: robust z-score, replicate 1 = -1.15; robust z-score, replicate 2 = 1.52; robust z-score, replicate 3 = -0.188
ELP2 [SID442903401]: robust z-score, replicate 1 = -0.805; robust z-score, replicate 2 = -1.05; robust z-score, replicate 3 = -2.01
USP21 [SID442884923]: robust z-score, replicate 1 = 1.78; robust z-score, replicate 2 = 0.752; robust z-score, replicate 3 = 2.8
ATP13A4 [SID442894461]: robust z-score, replicate 1 = -0.112; robust z-score, replicate 2 = -0.356; robust z-score, replicate 3 = 0.27
GATA1 [SID442901291]: robust z-score, replicate 1 = -0.703; robust z-score, replicate 2 = -0.994; robust z-score, replicate 3 = -0.937
ALDH1L1 [SID442904126]: robust z-score, replicate 1 = -1.38; robust z-score, replicate 2 = -1.64; robust z-score, replicate 3 = -1.48
ACO1 [SID442894607]: robust z-score, replicate 1 = -0.231; robust z-score, replicate 2 = -0.176; robust z-score, replicate 3 = 0.162
AQP9 [SID442897683]: robust z-score, replicate 1 = -0.328; robust z-score, replicate 2 = -0.531; robust z-score, replicate 3 = -0.378
IFNA1 [SID442886079]: robust z-score, replicate 1 = 1.14; robust z-score, replicate 2 = 1.79; robust z-score, replicate 3 = 0.895
ZBED11 [SID442894988]: robust z-score, replicate 1 = 0.179; robust z-score, replicate 2 = -0.42; robust z-score, replicate 3 = -0.122
LOC440100 (retired record) [SID442891000]: robust z-score, replicate 1 = 0.286; robust z-score, replicate 2 = 0.321; robust z-score, replicate 3 = 0.423
LOC390606 (retired record) [SID442903285]: robust z-score, replicate 1 = -1.01; robust z-score, replicate 2 = -1.37; robust z-score, replicate 3 = -1.41

Taken from above:
Value for NEXMIF [SID442896452] under “robust z-score, replicate 2”: -0.299
USP21 [SID442884923], robust z-score, replicate 3 = 2.8
Result for GATA1 [SID442901291] under “robust z-score, replicate 2”: -0.994

Next results:
TRAPPC6B [SID442896627]: robust z-score, replicate 1 = -0.0278; robust z-score, replicate 2 = -0.0584; robust z-score, replicate 3 = -0.796
ZNF846 [SID442899473]: robust z-score, replicate 1 = -0.416; robust z-score, replicate 2 = -1.19; robust z-score, replicate 3 = -0.272
EPN3 [SID442888360]: robust z-score, replicate 1 = 1.08; robust z-score, replicate 2 = 0.639; robust z-score, replicate 3 = 0.479
RBKS [SID442888658]: robust z-score, replicate 1 = 0.93; robust z-score, replicate 2 = 0.741; robust z-score, replicate 3 = 0.378
NXPH3 [SID442887203]: robust z-score, replicate 1 = 0.978; robust z-score, replicate 2 = 0.0292; robust z-score, replicate 3 = 1.88
LOC390638 [SID442902160]: robust z-score, replicate 1 = -0.525; robust z-score, replicate 2 = -1.06; robust z-score, replicate 3 = -1.48
LINC00639 [SID442883105]: robust z-score, replicate 1 = 6.25 (active); robust z-score, replicate 2 = 7.33; robust z-score, replicate 3 = 5.62
DLGAP2 [SID442890043]: robust z-score, replicate 1 = 0.419; robust z-score, replicate 2 = 0.936; robust z-score, replicate 3 = 0.0616
